# Primary screen of a compound library

The chains behind the UniProt entries cited, without tags or fusion partners. Residues count along the entry.
UniProt A4I591, 1-473: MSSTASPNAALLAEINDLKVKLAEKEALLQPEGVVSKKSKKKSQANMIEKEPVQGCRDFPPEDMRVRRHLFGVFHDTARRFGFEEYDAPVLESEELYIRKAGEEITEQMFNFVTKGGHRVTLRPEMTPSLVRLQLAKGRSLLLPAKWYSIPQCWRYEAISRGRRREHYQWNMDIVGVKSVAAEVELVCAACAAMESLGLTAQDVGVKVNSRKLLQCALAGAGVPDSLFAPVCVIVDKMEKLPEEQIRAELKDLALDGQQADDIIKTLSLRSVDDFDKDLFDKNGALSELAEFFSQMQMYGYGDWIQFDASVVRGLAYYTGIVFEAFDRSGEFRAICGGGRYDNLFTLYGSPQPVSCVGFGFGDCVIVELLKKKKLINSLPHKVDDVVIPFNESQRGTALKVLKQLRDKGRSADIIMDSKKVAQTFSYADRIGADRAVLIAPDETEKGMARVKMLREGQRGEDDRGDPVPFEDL
UniProt P9WNZ1, whole entry: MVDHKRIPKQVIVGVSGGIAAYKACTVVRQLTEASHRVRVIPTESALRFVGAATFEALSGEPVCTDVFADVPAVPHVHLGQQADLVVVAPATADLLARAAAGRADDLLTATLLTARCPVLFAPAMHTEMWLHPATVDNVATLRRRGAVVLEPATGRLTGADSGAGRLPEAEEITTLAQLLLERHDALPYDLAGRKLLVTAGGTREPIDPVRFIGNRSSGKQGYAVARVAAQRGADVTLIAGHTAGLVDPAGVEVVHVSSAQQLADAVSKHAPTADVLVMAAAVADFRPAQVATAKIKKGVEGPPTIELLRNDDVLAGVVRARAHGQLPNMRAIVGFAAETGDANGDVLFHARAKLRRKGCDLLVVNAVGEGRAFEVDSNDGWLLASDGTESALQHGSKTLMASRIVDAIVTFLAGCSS

LiHisRS: 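Enzyme assay of histidyl-tRNA synthetase; the read-out is not stated. Target: Histidine-tRNA ligase, Leishmania infantum (UniProt A4I591). Compounds at 30 µM. Direction is inferred from retests: higher values go with stronger inhibition. The assay is labelled LdHisRS but filed under L. infantum. Size under these conditions: about 69,000 compounds, about 410 of them at 50% or above in at least one test.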
Leishmania in macrophages: 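Cell assay of Leishmania donovani living inside macrophages; the read-out is not stated. Compounds at 30 µM. Direction is inferred from retests: higher values go with stronger inhibition. About 69,000 compounds were tested under these conditions; 1.5% (about 1,000) showed 50% or more at least once.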
CoaBC: 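Coenzyme A biosynthesis protein CoaBC, Mycobacterium tuberculosis (UniProt P9WNZ1). Enzyme assay of CoaBC with a phosphate dye (Biomol Green) read at 650 nm. Concentration: 30 µM. Direction is inferred from only a few compounds that gave an IC50; most scored high, so higher reads as stronger inhibition. Most strong results did not repeat in a second test. About 67,000 compounds were tested under these conditions; 0.06% (about 40) showed 50% or more at least once.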

The filed quantity is “Percent Effect” (%). The controls that fix the scale are not given in the record; negative values are as filed. The compounds are a random part of those screened. Two or more numbers in one place are separate tests of the same structure; such repeats can differ widely.

{"compound": "CCn1nc(C)cc1C(=O)NCc1nc(C)no1", "LiHisRS": 11.9, "Leishmania in macrophages": 22.32, "CoaBC": 1.699}
{"compound": "[H][C@]12CCC[C@@]1(COCC)CN(C(=O)COc1ccccc1OC)C2", "Leishmania in macrophages": 24.35}
{"compound": "O=C(Nc1ccc(F)cc1)C(c1ccccc1)N1CCOCC1", "stereo": "configuration not stated", "LiHisRS": 9.821, "CoaBC": 10.33}
{"compound": "O=C(NCC1CC1)[C@H]1C[C@@H]2CN(S(=O)(=O)Cc3ccccc3)C[C@H]1O2", "LiHisRS": -0.7299, "CoaBC": "8.466 and 22.8"}
{"compound": "CCCc1nc(C)c(CNc2nc(C)nc3onc(C)c23)s1", "LiHisRS": 2.564, "Leishmania in macrophages": -1.538, "CoaBC": 0.4}
{"compound": "CCCc1cc(=O)[nH]c(-c2cccc(CN3CCCCCC3)c2)n1", "LiHisRS": 12.9, "Leishmania in macrophages": -12.61, "CoaBC": 0.9828}
{"compound": "COC(=O)C(CNC(=O)Nc1nncs1)Cc1cccc(C)c1", "stereo": "configuration not stated", "LiHisRS": 8, "Leishmania in macrophages": -3.188, "CoaBC": -4.959}
{"compound": "Cc1cc(NCC(=O)N(C)C(C)c2cccs2)c(C(N)=O)cc1F", "stereo": "configuration not stated", "LiHisRS": 29.58, "Leishmania in macrophages": 15.87, "CoaBC": 11.9}
{"compound": "CC(=O)N1CCC(C(=O)c2cc(C)cnc2N)CC1", "LiHisRS": 6.569, "Leishmania in macrophages": -7.76, "CoaBC": 7.254}
{"compound": "Cc1cc(C)nc(Nc2cccc(C3CCCN(S(C)(=O)=O)C3)n2)n1", "stereo": "configuration not stated", "LiHisRS": 15.62, "Leishmania in macrophages": 7.158, "CoaBC": -7.843}
{"compound": "CC(C)(C)CCN1CCN(Cn2nccc2-c2cccnc2)CC1", "LiHisRS": 5.759, "Leishmania in macrophages": 14.91, "CoaBC": 5.217}
{"compound": "O=C(c1sccc1Br)N1CCOCC1", "LiHisRS": -50.89, "Leishmania in macrophages": 21.74, "CoaBC": 0.7937}
{"compound": "COC(=O)c1ccc(NC(=O)CN2CCCCC2C2OCCO2)cc1", "stereo": "configuration not stated", "LiHisRS": 8.036, "Leishmania in macrophages": 7.678, "CoaBC": 6.349}
{"compound": "CNC(=O)Nc1cc(-c2ccccc2C)nn1CCO", "LiHisRS": 8.571, "Leishmania in macrophages": 16.2, "CoaBC": -0.6748}
{"compound": "CC(Nc1ncnc2c1CCNCC2)c1nc2c(s1)CCCC2", "stereo": "configuration not stated", "LiHisRS": 19.28, "Leishmania in macrophages": 11.97, "CoaBC": -58.25}
{"compound": "Cc1cnn(C2CCCN(C(=O)c3ccnc(N(C)C)c3)C2)c1", "stereo": "configuration not stated", "LiHisRS": 18.92, "Leishmania in macrophages": -18.84, "CoaBC": 3.133}
{"compound": "CC(CNC(=O)c1ccccc1Oc1cccnc1)N(C)C", "stereo": "configuration not stated", "LiHisRS": 13.46, "Leishmania in macrophages": 14.58, "CoaBC": 10.45}
{"compound": "Cc1cnn(CCC(=O)N2CCCC(c3cc(C)[nH]n3)C2)c1", "stereo": "configuration not stated", "LiHisRS": 18.42, "Leishmania in macrophages": -4.588, "CoaBC": 8.265}
{"compound": "OC1(CNCCSc2ccccn2)CCCNC1", "stereo": "configuration not stated", "LiHisRS": -1.613, "Leishmania in macrophages": 6.168, "CoaBC": 5.535}
{"compound": "OC1CCN(c2nc(-c3ccccc3)no2)CC1", "LiHisRS": 8.036, "Leishmania in macrophages": 21.58, "CoaBC": 3.571}

Once more, the final 2:

{"compound": "OC1(CNCCSc2ccccn2)CCCNC1", "stereo": "configuration not stated", "LiHisRS": -1.613, "Leishmania in macrophages": 6.168, "CoaBC": 5.535}
{"compound": "OC1CCN(c2nc(-c3ccccc3)no2)CC1", "LiHisRS": 8.036, "Leishmania in macrophages": 21.58, "CoaBC": 3.571}

The values are deposited in ChEMBL (CHEMBL3988442, “University of Dundee, Small-Polar-MMV Screening Library” (2021)).